Some of the results follow.
target: OsWRKY34 (Oryza sativa, UniProt Q0JBA9 1-250); assay: protein-binding microarray (RPBM); PBS, 2% BSA, 51.3 ng/ul salmon testes DNA, 50 uM zinc acetate, 200 nM TF, 25 C, 1 h; high values mean tight binding; conditions: protein: recombinant; tags: N-terminal polyhistidine and DsRed monomer fusion (pET32a); label: CyDye5-dUTP incorporated in the synthesized complementary strand; 3' TTTTT single-stranded linker to array surface; dsDNA, one strand shown
In short: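 Transcription factors were each fused at the N-terminus to a polyhistidine tag plus DsRed and expressed in E. coli BL21-CodonPlus before Ni–NTA purification. Binding to a double-stranded custom Agilent array was carried out with 200 nM protein at 25 °C for 1 h in PBS, 2% BSA, salmon testes DNA and 50 µM zinc acetate. The binding signal is per-feature fluorescence intensity, in arbitrary units, on an Axon 4000B scanner.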

The chains behind the UniProt entries cited, without tags or fusion partners.
UniProt Q0JBA9, entry or part of it: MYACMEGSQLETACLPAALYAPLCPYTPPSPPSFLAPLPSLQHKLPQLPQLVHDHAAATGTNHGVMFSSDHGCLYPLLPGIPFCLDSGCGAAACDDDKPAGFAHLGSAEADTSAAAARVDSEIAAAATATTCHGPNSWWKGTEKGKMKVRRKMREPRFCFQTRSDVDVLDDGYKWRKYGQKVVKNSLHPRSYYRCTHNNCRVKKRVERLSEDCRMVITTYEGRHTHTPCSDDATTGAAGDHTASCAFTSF

Sequence | binding signal
GTTTCTTTTTCTCCCCTGAATTTATCTACGTGTTCATGTACGGAGTCACCTAGTGCAG | 8030 fluorescence intensity (a.u.)
GTTTTTGGTAGGGGTTAGTTTCGAAATAAGTTTTTGAAAACGGAGTCACCTAGTGCAG | 9030 fluorescence intensity (a.u.)
GTCTGCCACCAACCCACTTCCTATTTGTCGCCGTCGCGGCCGGAGTCACCTAGTGCAG | 11600 fluorescence intensity (a.u.)
AAGTCCTTCATTTTTCCTATGTTTCTCCTCCATTCCGAATCGGAGTCACCTAGTGCAG | 11400 fluorescence intensity (a.u.)
GGTTGGGAATGGCTGGCGGTTAATTCAATTTGCTGCTGACCGGAGTCACCTAGTGCAG | 13000 fluorescence intensity (a.u.)
CCGCAAGGGTATTCTCGTAACTTGATCTCCTACCAAGCTACGGAGTCACCTAGTGCAG | 8080 fluorescence intensity (a.u.)
ATGAACATGAGGACCATCATATCCCTCATCCCAGATACATCGGAGTCACCTAGTGCAG | 9380 fluorescence intensity (a.u.)
TTTATTTCTCATCTAGATTTACTAACGTTCATATAAATTTCGGAGTCACCTAGTGCAG | 8240 fluorescence intensity (a.u.)
CCTTGAATTTTGCCAAGTGCCATTCACCTTGTCTCTAGTCCGGAGTCACCTAGTGCAG | 8680 fluorescence intensity (a.u.)
ACGTACTCTCTCACCTAATCAAAGGGATACTTGTGCTGTACGGAGTCACCTAGTGCAG | 8730 fluorescence intensity (a.u.)
ATATACATAAGCTTCTCGTGCACACACAAACTAACATAAACGGAGTCACCTAGTGCAG | 8610 fluorescence intensity (a.u.)
GTAGTATTGCCTCGCCTAAGCCATCAACAACGTACAGTATCGGAGTCACCTAGTGCAG | 10100 fluorescence intensity (a.u.)
CCTGCTGGTTCGCTCAATTCATCACAGGTATGCTCCCATACGGAGTCACCTAGTGCAG | 8920 fluorescence intensity (a.u.)
ATATATATCTTCTCGTGTAGTTAATAAAATACTTATACACCGGAGTCACCTAGTGCAG | 9030 fluorescence intensity (a.u.)
GGGCCGCTTTTTTGTGGGGTTAATGTTGTAGGAGTATTTGCGGAGTCACCTAGTGCAG | 10700 fluorescence intensity (a.u.)
AAAAACCTCAATGAATGGTGCCCTTATTCGTTTGTTTTCCCGGAGTCACCTAGTGCAG | 10300 fluorescence intensity (a.u.)
GATCACATGACTTCCTTCTCGCGTTTACCTGATCGCTCTTCGGAGTCACCTAGTGCAG | 8290 fluorescence intensity (a.u.)
GTGTTTTAGATGCCTTTCCTGTGGACCGTTCGATCCTGCACGGAGTCACCTAGTGCAG | 9630 fluorescence intensity (a.u.)
CTCATATATCCTTTCGATGTTGTTCACACGTATTCCTTGCCGGAGTCACCTAGTGCAG | 11000 fluorescence intensity (a.u.)
GTCCACTGAACCATATTAATTCCAGTGATTAATCTCTTCTCGGAGTCACCTAGTGCAG | 8950 fluorescence intensity (a.u.)
ACCACCGCGCCGCCGACTCCGCCCCACCACCCGTCGCCTCCGGAGTCACCTAGTGCAG | 8760 fluorescence intensity (a.u.)

Reformatted in CSV form: entries from further up
Sequence,binding signal
GTCTGCCACCAACCCACTTCCTATTTGTCGCCGTCGCGGCCGGAGTCACCTAGTGCAG,11600 fluorescence intensity (a.u.)
AAGTCCTTCATTTTTCCTATGTTTCTCCTCCATTCCGAATCGGAGTCACCTAGTGCAG,11400 fluorescence intensity (a.u.)

Next part

Sequence | binding signal
TGTGTTGTTTTATATTCAAACTTGATTACCCCGTAGTCAGCGGAGTCACCTAGTGCAG | 8070 fluorescence intensity (a.u.)
TTATCATTCTTCTCCACCTTGTTCCTGTTGTTGCGTCTACCGGAGTCACCTAGTGCAG | 16100 fluorescence intensity (a.u.)
CGTATATATTCTTTCCGACCTGGGCCCTGCAAAATTCCTTCGGAGTCACCTAGTGCAG | 10400 fluorescence intensity (a.u.)
TCGTTATGCCTTTTGGTTTGGTTTATCCCTTCCTCTTGAACGGAGTCACCTAGTGCAG | 10100 fluorescence intensity (a.u.)
TATGGAATTATTATTTATTTTGTTTGTAACTTGCTTTATTCGGAGTCACCTAGTGCAG | 9260 fluorescence intensity (a.u.)
TATTTCCATACCGCTCGCCCGCTCTTTTTTCCGAAATCAGCGGAGTCACCTAGTGCAG | 9770 fluorescence intensity (a.u.)
TCATCCGCACCAACACCATTAGTTATATTACCCACACATCCGGAGTCACCTAGTGCAG | 8520 fluorescence intensity (a.u.)
TCCACCACACACACGCCAGTCGCCGCCGGCTTTTGCTTCCCGGAGTCACCTAGTGCAG | 9750 fluorescence intensity (a.u.)
AGGTGGCGAGCAGAGCAGGGGAGGGGAGGGGATCCTGCAGCGGAGTCACCTAGTGCAG | 12600 fluorescence intensity (a.u.)
TCTCATTGCACCTTGGTTCTTATCATACTATGCTACCCAACGGAGTCACCTAGTGCAG | 8060 fluorescence intensity (a.u.)
CCATCACTCGATTTTTCTCATTTTTGACTCTAAAGCTTATCGGAGTCACCTAGTGCAG | 8380 fluorescence intensity (a.u.)
GGGGAGGGAGAGGCCACGTCGTCAGCCAGCCAGCCATTTCCGGAGTCACCTAGTGCAG | 10500 fluorescence intensity (a.u.)
ATATGGTTGTTGCTTTGACTTAATATCTTAATTGGTATTCCGGAGTCACCTAGTGCAG | 11300 fluorescence intensity (a.u.)
TCCACTTTTACCTTCCATTCATTTGACGACTGAGACTAAGCGGAGTCACCTAGTGCAG | 8430 fluorescence intensity (a.u.)
AACCGATAAGACCATGGATACGTTGCCGGGGCCCAAATACCGGAGTCACCTAGTGCAG | 8210 fluorescence intensity (a.u.)
ATTTTACTATAAATACTTATATTTTGGCCTTTTTCTTTTACGGAGTCACCTAGTGCAG | 9480 fluorescence intensity (a.u.)
CGACGCGCCATCGCCTCGCCTCTCACCTACTGCCTCGTCCCGGAGTCACCTAGTGCAG | 8820 fluorescence intensity (a.u.)
TTTGCCGTTCGTCTTTGCATTGCAGGTTTTTCTCTGAACCCGGAGTCACCTAGTGCAG | 8150 fluorescence intensity (a.u.)
TACCTCTTTTGCACTATGGACCACCCTTTTTTCATCTCTCCGGAGTCACCTAGTGCAG | 13500 fluorescence intensity (a.u.)
CCAGAAGACTAGCTAACCTATTCCTTTTGATTGTTGAATTCGGAGTCACCTAGTGCAG | 9210 fluorescence intensity (a.u.)
TTCGCTAGCTCCTGATTCGGCCATGGCGGGGTGTATTGTTCGGAGTCACCTAGTGCAG | 9220 fluorescence intensity (a.u.)
